Reference: PMC11994318, “In vitro characterization of the yeast DEAH/RHA RNA helicase Dhr1” (The Journal of Biological Chemistry, 2025)
Construct, isoform or probe ends are uncertain for at least one entry. At least one verdict rests on a figure or table, not on a statement of the authors. Where a protein sequence is shown, tags need not be part of it.

Target: T1, ΔN-Dhr1-WT (Saccharomyces cerevisiae) (UniProt Q04217)
T1 sequence (looked up, limits assumed): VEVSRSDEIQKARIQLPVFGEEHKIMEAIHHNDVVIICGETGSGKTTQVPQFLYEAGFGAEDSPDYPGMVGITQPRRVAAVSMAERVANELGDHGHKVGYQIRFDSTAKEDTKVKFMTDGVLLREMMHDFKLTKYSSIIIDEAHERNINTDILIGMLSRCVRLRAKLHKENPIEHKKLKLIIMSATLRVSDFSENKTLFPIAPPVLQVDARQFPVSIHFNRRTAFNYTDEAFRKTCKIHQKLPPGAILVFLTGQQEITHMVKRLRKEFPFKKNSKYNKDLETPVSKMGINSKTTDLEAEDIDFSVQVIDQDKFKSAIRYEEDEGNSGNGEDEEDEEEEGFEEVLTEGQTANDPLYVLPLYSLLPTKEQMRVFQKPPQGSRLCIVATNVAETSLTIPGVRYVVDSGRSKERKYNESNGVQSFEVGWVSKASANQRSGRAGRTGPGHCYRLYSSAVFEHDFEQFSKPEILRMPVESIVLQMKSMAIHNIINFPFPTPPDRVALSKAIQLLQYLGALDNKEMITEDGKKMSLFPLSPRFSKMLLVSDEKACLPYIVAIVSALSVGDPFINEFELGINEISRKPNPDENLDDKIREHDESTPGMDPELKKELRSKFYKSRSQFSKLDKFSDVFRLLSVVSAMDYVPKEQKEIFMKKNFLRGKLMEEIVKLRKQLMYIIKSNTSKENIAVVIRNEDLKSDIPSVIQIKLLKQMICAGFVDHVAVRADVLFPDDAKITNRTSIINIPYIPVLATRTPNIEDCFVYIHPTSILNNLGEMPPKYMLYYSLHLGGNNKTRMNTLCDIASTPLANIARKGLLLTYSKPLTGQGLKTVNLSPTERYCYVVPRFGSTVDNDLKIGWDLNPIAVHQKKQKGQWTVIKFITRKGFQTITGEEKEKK
Experiment: fluorescence polarization
Conditions: 10 mM Mg2+, no significant change vs no nucleotide, 40 mM Tris-HCl pH 8.0, 40 mM KCl, 150 mM NaCl, 2 mM NaOAc, 2 mM DTT, 10 mM MgCl2, 4% glycerol, 0.05% Tween 20, 25 °C, 10 min, 1.25 nM RNA, 0.625 nM-20 µM protein, recombinant protein, protein details: C-terminal His6 (pET21a), label: 5' 6-FAM

UUUUUUUUUUUUUUUUUUUU [U20]
binding result (1 mM ADP): binds | binding result (1 mM AMPPNP): binds
